Results on one substance are retold here after PMC3614555.

By UniProt entry, the sequences of proteins in these tests, tags left out. Where a name states a change or a piece, a line headed by the entry shows the natural chain unless it says otherwise.
UniProt Q00651: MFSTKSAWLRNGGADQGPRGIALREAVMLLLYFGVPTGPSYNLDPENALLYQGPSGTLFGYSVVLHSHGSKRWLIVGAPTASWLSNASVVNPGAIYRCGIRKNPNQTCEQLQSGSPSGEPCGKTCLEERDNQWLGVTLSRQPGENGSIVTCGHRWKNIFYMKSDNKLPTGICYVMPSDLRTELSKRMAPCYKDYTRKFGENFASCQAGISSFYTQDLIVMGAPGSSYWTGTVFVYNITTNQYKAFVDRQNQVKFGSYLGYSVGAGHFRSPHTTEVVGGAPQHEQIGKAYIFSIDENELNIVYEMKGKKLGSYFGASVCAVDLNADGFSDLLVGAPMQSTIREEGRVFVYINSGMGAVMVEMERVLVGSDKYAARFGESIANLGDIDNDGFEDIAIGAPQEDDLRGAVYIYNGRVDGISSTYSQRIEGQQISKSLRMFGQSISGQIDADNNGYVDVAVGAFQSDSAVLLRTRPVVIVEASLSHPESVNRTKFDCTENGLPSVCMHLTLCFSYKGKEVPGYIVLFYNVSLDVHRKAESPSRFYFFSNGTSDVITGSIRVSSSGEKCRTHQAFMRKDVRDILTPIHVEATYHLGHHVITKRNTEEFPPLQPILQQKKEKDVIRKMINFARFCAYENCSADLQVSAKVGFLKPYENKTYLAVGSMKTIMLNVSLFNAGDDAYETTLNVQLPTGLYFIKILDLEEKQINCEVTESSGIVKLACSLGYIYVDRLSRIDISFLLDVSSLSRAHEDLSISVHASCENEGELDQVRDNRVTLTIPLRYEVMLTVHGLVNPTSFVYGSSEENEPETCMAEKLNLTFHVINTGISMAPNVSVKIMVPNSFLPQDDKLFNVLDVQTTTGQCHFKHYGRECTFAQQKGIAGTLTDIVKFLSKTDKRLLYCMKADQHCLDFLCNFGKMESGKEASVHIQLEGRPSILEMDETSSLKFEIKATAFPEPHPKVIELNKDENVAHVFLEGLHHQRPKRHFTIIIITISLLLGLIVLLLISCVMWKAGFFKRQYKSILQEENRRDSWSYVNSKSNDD
UniProt P09055: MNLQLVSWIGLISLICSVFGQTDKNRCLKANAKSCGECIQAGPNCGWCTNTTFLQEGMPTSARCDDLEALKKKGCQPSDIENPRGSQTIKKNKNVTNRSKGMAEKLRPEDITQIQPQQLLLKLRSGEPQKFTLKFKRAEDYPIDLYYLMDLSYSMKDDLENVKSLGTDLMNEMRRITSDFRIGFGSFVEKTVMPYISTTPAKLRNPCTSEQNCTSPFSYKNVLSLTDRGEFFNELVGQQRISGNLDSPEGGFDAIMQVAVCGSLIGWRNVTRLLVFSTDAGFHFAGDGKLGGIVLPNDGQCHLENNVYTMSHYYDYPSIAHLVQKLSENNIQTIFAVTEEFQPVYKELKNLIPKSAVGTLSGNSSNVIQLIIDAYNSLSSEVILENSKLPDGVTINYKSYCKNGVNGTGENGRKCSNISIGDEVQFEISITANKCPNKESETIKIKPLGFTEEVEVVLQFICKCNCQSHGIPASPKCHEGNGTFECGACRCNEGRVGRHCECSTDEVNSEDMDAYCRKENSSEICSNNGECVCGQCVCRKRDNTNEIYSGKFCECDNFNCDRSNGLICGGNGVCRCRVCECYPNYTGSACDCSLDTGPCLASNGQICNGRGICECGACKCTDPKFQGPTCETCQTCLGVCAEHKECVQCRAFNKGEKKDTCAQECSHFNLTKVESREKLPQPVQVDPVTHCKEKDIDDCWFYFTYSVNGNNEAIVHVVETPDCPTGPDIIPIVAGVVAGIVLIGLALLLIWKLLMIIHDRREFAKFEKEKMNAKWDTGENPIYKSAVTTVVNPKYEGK
UniProt Q8VI36: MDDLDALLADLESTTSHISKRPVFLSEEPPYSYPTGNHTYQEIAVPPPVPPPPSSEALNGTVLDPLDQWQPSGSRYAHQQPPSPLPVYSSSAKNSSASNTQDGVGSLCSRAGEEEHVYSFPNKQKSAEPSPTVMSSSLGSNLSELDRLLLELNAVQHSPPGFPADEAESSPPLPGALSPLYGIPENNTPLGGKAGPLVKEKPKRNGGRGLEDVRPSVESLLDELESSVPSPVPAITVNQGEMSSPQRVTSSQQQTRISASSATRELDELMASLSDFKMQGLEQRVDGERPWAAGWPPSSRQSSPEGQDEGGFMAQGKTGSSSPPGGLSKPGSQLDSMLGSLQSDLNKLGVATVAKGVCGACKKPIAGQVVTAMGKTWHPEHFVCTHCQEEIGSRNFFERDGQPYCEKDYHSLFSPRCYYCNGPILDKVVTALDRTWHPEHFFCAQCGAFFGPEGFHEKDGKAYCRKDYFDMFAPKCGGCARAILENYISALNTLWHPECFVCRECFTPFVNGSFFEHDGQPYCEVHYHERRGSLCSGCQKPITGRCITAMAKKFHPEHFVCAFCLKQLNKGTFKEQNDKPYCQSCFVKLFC

These are yes or no findings as the source states them, for the method shown. Binding seen in cells or lysates may run through a third protein. Some entries that bind do so weakly or less than the wild type.

For test [1], the target named is T1, integrin α4β1 (mouse (endogenous in bone marrow derived cells)) (UniProt Q00651+P09055). Kind of test: co-IP; integrin α4β1 immunoprecipitated from p110γ−/− bone marrow derived cells with (+) or without (−) SDF-1α stimulation; immunoblotted for the integrin α4 subunit, talin and paxillin. (A western blot detects proteins with antibodies after separation by electrophoresis.)

Test [2] addresses T1, integrin α4β1 (mouse (endogenous in bone marrow derived cells)). Kind of test: co-IP; integrin α4β1 immunoprecipitated from bone marrow derived cells with (+) or without (−) SDF-1α stimulation; immunoblotted for the integrin α4 subunit, talin and paxillin.
In test [3] the target is integrin α4β1 from α4Y991A mice (mouse (endogenous in bone marrow derived cells)) (UniProt Q00651+P09055). The test is described as above.

Turning to paxillin (from UniProt Q8VI36 1-591), the binding result is listed as “no binding (condition: in p110γ−/− myeloid cells)” in test [1], “binds” in test [2] and “no binding” in test [3].
